One molecule from publication PMC9869517 can be followed below.

By UniProt entry, the sequences of proteins in these tests, tags left out.
UniProt P62835: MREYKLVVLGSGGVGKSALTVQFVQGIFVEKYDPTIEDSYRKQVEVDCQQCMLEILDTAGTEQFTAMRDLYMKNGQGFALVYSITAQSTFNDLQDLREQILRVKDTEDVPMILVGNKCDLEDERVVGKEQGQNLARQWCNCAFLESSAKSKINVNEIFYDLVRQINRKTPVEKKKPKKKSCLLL

No constants are given. Whether binding was seen depends on the method and setting. Binding seen in cells or lysates may run through a third protein. Some results given as binding are weak or reduced against the parent protein; the word gives no strength.

For the test, the target named is Rap1a (mouse (endogenous in primary mouse endometrial stromal cells)) (UniProt P62835). As to the kind of experiment: co-IP; lysates of ESCs plated on 1 kPa hydrogels; anti-Rap1a or normal IgG on Protein A + G magnetic beads, incubated with lysate overnight at 4 °C; washed three times with lysis buffer; western blot. (Immunoblotting shows a protein as a band on a membrane.)

B1: p190A RhoGAP (p190A), encoded by the ARHGAP35 gene (protein, UniProt Q91YM2 1-1499)
chain: MMMARKQDVRIPTYNISVVGLSGTEKEKGQCGIGKSCLCNRFVRPSADEFHLDHTSVLSTSDFGGRVVNNDHFLYWGEVSRSLEDCVECKMHIVEQTEFIDDQTFQPHRSTALQPYIKRAAATKLASAEKLMYFCTDQLGLEQDFEQKQMPDGKLLVDGFLLGIDVSRGMNRNFDDQLKFVSNLYNQLAKTKKPIVVVLTKCDEGVERYIRDAHTFALSKKNLQVVETSARSNVNVDLAFSTLVQLIDKSRGKTKIIPYFEALKQQSQQIATAKDKYEWLVSRIVKNHNENWPSVSRKMQASPEYQDYVYLEGTQKAKKLFLQHIHRLKHEHIERRRKLYLAALPLAFEALIPNLDEVDHLSCIKAKKLLETKPEFLKWFVVLEETPWDATSHIDNMENERIPFDLMDTVPAEQLYETHLEKLRNERKRAEMRRAFKENLETSPFITPGKPWEEARSFIMNEDFYQWLEESVYMDIYGKHQKQIIDRAKEEFQELLLEYSELFYELELDAKPSKEKMGVIQDVLGEEQRFKALQKLQAERDALILKHIHFVYHPTKETCPSCPACVDAKIEHLISSRFIRPSDRNQKNSLSDLNIDRINLVILGKDGLARELANEIRALCTNDDKYVIDGKMYELSLRPIEGNVRLPVNSFQTPTFQPHGCLCLYNSKESLSYVVESIEKSRESTLGRRDNHLVHLPLTLILVNKRGDTSGETLHSLIQQGQQIASKLQCVFLDPASAGIGYGRNINEKQISQVLKGLLDSKRNLNLVSSTASIKDLADVDLRIVMCLMCGDPFSADDVLSPVLQSQTCKSSHCGSSNSVLLELPIGLHKKRIELSVLSYHSSFSIRKSRLVHGYIVFYSAKRKASLAMLRAFLCEVQDIIPIQLVALTDGAIDVLDNDLSREQLTEGEEIAQEIDGRFTSIPCSQPQHKLELFHPFFKDVVEKKNIIEATHMYDNVAEACSTTEEVFNSPRAGSPLCNSNLQDSEEDVEPPSYHLFREDATLPSLSKDHSKFSMELEGNDGLSFIMSNFESKLNNKVPPPVKPKPPVHFDITKDLSYLDQGHREGQRKSMSSSPWMPQDGFDPSDYAEPMDAVVKPRNEEENIYSVPHDSTQGKIITIRNINKAQSNGSGNGSDSEMDTSSLERGRKVSAVSKPVLYRTRCTRLGRFASYRTSFSVGSDDELGPIRKKEEDQASQGYKGDNAVIPYETDEDPRRRNILRSLRRNTKKPKPKPRPSITKATWESNYFGVPLTTVVTPEKPIPIFIERCIEYIEATGLSTEGIYRVSGNKSEMESLQRQFDQDHNLDLAEKDFTVNTVAGAMKSFFSELPDPLVPYSMQIDLVEAHKINDREQKLHALKEVLKKFPKENHEVFKYVISHLNKVSHNNKVNLMTSENLSICFWPTLMRPDFSSMDALTATRSYQTIIELFIQQCPFFFYNRPISEPPGAAPGSPSAMAPTVPFLTSTPATSQPSPPQSPPPTPQSPMQPLLSSQLQAEHTL
As to B1, the binding entry is “binds”.
